Where a chain is given by its changes, count along the chain named. Results are given in words; binding and its absence hold for the method and conditions named. Some binding calls cover weakened binding; strength is not graded here. For some assays here: Tags and fused reporters may be left off the sequences shown. Values belong to the binder of their own block, whether it stands above or below them.
Experiments:
[1] = biological target: T1, rhesus CD11a (rhesus) (UniProt H9Z8N3); assay: saturation binding with and without 1 mg/ml human IgG1; adhesion assays
T1 sequence: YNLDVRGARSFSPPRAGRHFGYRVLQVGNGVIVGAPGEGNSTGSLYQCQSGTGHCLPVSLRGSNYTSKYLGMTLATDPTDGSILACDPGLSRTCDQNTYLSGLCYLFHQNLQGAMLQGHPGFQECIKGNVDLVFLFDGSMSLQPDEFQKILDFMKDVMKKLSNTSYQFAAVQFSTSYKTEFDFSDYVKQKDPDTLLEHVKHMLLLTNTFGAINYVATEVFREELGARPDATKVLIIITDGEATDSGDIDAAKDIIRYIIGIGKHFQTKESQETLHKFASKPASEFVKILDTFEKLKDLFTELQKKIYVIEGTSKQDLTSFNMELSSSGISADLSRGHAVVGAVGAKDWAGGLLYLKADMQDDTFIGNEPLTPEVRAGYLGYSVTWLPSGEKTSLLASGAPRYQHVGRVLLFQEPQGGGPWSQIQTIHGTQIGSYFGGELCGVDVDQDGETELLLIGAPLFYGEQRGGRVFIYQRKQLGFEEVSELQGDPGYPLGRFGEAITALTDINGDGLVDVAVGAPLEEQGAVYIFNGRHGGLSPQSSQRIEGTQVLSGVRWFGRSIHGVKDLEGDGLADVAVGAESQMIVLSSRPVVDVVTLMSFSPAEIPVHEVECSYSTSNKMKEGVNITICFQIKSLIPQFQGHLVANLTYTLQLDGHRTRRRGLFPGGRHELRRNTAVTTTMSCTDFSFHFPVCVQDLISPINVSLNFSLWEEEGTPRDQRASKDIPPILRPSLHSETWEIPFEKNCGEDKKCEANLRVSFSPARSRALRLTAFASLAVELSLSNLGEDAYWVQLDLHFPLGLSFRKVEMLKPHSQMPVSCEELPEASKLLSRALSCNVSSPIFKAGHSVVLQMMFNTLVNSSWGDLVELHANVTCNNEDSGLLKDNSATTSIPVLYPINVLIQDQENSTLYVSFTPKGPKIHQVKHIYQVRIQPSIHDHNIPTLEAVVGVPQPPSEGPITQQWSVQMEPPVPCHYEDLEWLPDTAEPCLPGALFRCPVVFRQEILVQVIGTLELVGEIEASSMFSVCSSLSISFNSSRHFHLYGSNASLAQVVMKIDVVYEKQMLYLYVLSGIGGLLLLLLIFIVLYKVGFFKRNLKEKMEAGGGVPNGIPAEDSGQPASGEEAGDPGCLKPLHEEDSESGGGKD

[2] = biological target: T1, rhesus CD11a (rhesus); assay: binding to rhesus peripheral blood lymphocytes
[3] = biological target: T1, rhesus CD11a (rhesus); assay: saturation binding, rhesus leukocytes
[4] = biological target: T1, rhesus CD11a (rhesus); assay: condition: greater than 10-fold weaker than HuIgG1 (EC50 45.6 nM); binding to rhesus peripheral blood lymphocytes
[5] = biological target: T2, human CD11a (human) (UniProt P20701); assay: FACScan, Jurkat cells
T2 sequence (looked up): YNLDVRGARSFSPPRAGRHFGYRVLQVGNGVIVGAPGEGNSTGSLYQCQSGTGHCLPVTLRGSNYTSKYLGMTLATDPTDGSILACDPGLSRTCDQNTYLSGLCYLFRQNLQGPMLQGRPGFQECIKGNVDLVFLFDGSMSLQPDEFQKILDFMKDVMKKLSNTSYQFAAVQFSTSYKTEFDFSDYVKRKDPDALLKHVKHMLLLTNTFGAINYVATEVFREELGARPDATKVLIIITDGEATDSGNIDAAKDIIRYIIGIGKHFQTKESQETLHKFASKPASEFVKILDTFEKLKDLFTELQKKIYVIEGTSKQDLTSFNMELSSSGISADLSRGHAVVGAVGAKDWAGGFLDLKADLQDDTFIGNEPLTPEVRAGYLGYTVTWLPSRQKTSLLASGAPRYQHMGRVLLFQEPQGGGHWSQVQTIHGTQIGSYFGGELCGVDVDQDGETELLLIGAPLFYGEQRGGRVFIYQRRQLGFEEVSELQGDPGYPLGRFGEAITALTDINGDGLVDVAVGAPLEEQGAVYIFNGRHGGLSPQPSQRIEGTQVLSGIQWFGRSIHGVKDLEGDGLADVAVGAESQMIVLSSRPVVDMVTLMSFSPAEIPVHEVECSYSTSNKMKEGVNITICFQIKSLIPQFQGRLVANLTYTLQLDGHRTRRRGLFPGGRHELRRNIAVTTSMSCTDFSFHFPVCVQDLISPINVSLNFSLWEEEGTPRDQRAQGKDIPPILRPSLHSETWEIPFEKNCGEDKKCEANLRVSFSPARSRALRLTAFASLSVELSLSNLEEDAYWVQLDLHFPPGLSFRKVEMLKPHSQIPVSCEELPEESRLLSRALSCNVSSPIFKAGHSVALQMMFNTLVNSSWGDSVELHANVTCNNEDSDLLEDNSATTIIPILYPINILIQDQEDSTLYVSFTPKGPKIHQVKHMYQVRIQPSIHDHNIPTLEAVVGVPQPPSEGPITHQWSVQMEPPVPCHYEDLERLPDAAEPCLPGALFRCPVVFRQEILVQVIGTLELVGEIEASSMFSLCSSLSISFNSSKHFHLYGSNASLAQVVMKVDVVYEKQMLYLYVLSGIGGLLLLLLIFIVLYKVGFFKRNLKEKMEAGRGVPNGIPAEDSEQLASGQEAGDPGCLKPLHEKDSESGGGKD

binding [1]: binds
binding [2]: binds
binding [3]: binds
B1: rhesus-binding MHM24 RhIgG1 (antibody, V domains shown)
VH: EVQLVESGGGLVQPGGSLRLSCAASGYSFTGHWMNWVRQAPGKGLEWVGMIAPASSSTRYNQKFKDRFTISVDKSKNTLYLQMNSLRAEDTAVYYCARGIYFYGTTYFDYWGQGTLVTVSS
VL: DIQMTQSPSSLSASVGDRVTITCRASKTISKYLAWYQQKPGKAPKLLIYSGSTLQSGVPSRFSGSGSGTDFTLTISSLQPEDFATYYCQQHNEYPLTFGQGTKVEIKR

B2: AspH54Thr (antibody, human IgG1, V domains shown)
VH: B1 VH with A52H, A54S, S55T, S57E
VL: DIQMTQSPSSLSASVGDRVTITCRASKTISKYLAWYQQKPGKAPKLLIYSGSTLQSGVPSRFSGSGSGTDFTLTISSLQPEDFATYYCQQHNEYPLTFGQGTKVEIK
binding [2]: no binding (tested: Variant EC50/HuIgG1 EC50 >25)

B3: AspH54Met (antibody, human IgG1, V domains shown)
VH: B1 VH with A52H, A54S, S55M, S57E
VL: B2 VL
binding [2]: no binding (tested: Variant EC50/HuIgG1 EC50 >25)

binding [4]: no binding
B4: HisH52Ser (antibody, human IgG1, V domains shown)
VH: B1 VH with A52S, A54S, S55D, S57E
VL: B2 VL

B5: AspH54His (antibody, human IgG1, V domains shown)
VH: B1 VH with A52H, A54S, S55H, S57E
VL: B2 VL
binding [2]: no binding (tested: Variant EC50/HuIgG1 EC50 >25)

binding [4]: no binding
B6: SerH55Asn (antibody, human IgG1, V domains shown)
VH: B1 VH with A52H, A54S, S55D, S56N, S57E
VL: B2 VL

binding [4]: no binding
B7: H3 (antibody, human IgG1, V domains shown)
VH: B1 VH with A52H, A54S, S55D, S57E, Y101A, Y103A
VL: B2 VL
binding [5]: no binding (tested: Var.EC50/HuIgG1 EC50 >900)

B8: AspH54Leu (antibody, human IgG1, V domains shown)
VH: B1 VH with A52H, A54S, S55L, S57E
VL: B2 VL
binding [2]: no binding (tested: Variant EC50/HuIgG1 EC50 >25)

binding [4]: no binding
B9: LysH73Ala (antibody, human IgG1, V domains shown)
VH: B1 VH with A52H, A54S, S55D, S57E, K74A
VL: B2 VL

B10: AspH54Arg (antibody, human IgG1, V domains shown)
VH: B1 VH with A52H, A54S, S55R, S57E
VL: B2 VL
binding [2]: no binding (tested: Variant EC50/HuIgG1 EC50 >25)

B11: AspH54Glu (antibody, human IgG1, V domains shown)
VH: B1 VH with A52H, A54S, S55E, S57E
VL: B2 VL
binding [2]: no binding (tested: Variant EC50/HuIgG1 EC50 >25)
